Data as given in PubChem BioAssay AID504804 (Drosophila RNAi Screening Center, 2011)
Purpose: 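Fly genes whose loss lessens doxorubicin-driven cell death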 (primary screen). Cells: Drosophila Kc cells. Reagent: long dsRNA against Drosophila genes, 0.5 µg dsRNA per well. Timing: 96 h (48 h knock-down, then 48 h drug). Challenge: doxorubicin 5 µg/ml for 48 h, added 48 h after dsRNA. Detection: 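Viability measured as cellular ATP by luminescence after 48 h knock-down then 48 h doxorubicin at 5 µg/ml; unnormalised plate counts for each replicate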. Scale: raw ATP luminescence: higher = more viable cells, protection from doxorubicin. Call rule: 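Active when both duplicate wells lie at least 2 SD above the plate mean and protection is confirmed by rescreening and independent dsRNAs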.
The deposit covers about 19,000 reagents; this is a random part of those with a known target gene and a result. In the full data, 47 (0.25%) are marked active. 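Signals are raw, not normalised; exact z-scores behind calls not deposited; actives needed confirmation, so some wells reaching 2 SD are inactive.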 Reagents against one gene are numbered here. Names joined by + are all predicted targets of the reagent. Reagent sequences are not shown.

target	dsRNA no.	raw ATP luminescence, replicate 1	raw ATP luminescence, replicate 2	Call
CG5335 (GeneID 37140)	1	61020	64467	inactive
Erk7 (GeneID 31877)	1	3.46e5	3.68e5	inactive
Erk7 (GeneID 31877)	2	3.62e5	3.77e5	inactive
CG32606 (retired record) (GeneID 318111)	1	28550	28257	inactive
CG32606 (retired record) (GeneID 318111)	2	3.40e5	3.37e5	inactive
CG32606 (retired record) (GeneID 318111)	3	3.08e5	2.54e5	inactive
CG32606 (retired record) (GeneID 318111)	4	3.39e5	3.27e5	inactive
CG34033 (GeneID 3885602)	1	77567	66017	inactive
Stacl + CG8179 (retired record)	1	75173	86593	inactive
CG15423 (GeneID 33616)	1	28623	43747	inactive
CG43127 (GeneID 8673982)	1	1.99e5	1.92e5	inactive
Trf2 (GeneID 31773)	1	27570	31950	inactive
CG9143 (GeneID 37296)	1	60400	67030	inactive
CG13786 (GeneID 34006)	1	30703	27063	inactive
Grl36b (GeneID 318940)	1	2.60e5	2.57e5	inactive
dany (GeneID 246593)	1	71043	59847	inactive
fru (GeneID 42226)	1	17470	19370	inactive
fru (GeneID 42226)	2	67730	77010	inactive
fru (GeneID 42226)	3	66110	47310	inactive
JIL-1 (GeneID 39241)	1	44563	34530	inactive
mRpL39 (GeneID 39627)	1	79520	66587	inactive
CG6125 (GeneID 41882)	1	1.14e5	58190	inactive
CG18547 (GeneID 41452)	1	49227	46340	inactive
CG32081 (GeneID 326194)	1	87380	78580	inactive
hb (GeneID 41032)	1	52003	28310	inactive
GCC88 (GeneID 41350)	1	58793	57167	inactive
CG33502 + CG32857 + CG32500	1	2.23e5	2.50e5	inactive
CG33502 + CG32857 + CG32500	2	1.95e5	2.10e5	inactive
CG12438 (GeneID 34202)	1	30760	52900	inactive
Prosalpha2 (GeneID 41531)	1	61327	50453	inactive
CG30148 (GeneID 37318)	1	1.74e5	2.31e5	inactive
gnu (GeneID 39615)	1	16250	21523	inactive
tHMG2 (GeneID 42651)	1	30270	31060	inactive
l(2)10685 (GeneID 33293)	1	1.11e5	66233	inactive
CG7745 (GeneID 36210)	1	44877	34400	inactive
Nepl17 (GeneID 43408)	1	62890	54430	inactive
colt (GeneID 33470)	1	1.20e5	76277	inactive
Hrd3 (GeneID 42806)	1	43897	49040	inactive
CG32206 (GeneID 40105)	1	54180	73540	inactive
CG32206 (GeneID 40105)	2	71753	59613	inactive
CG32206 (GeneID 40105)	3	78610	72300	inactive
CG32206 (GeneID 40105)	4	80330	75247	inactive
CG32206 (GeneID 40105)	5	75470	61200	inactive
CG7099 (GeneID 34753)	1	68950	79780	inactive
CG34034 (GeneID 3885584)	1	2.39e5	2.21e5	inactive
ome (GeneID 44297)	1	75077	73220	inactive
ome (GeneID 44297)	2	42790	37790	inactive
ome (GeneID 44297)	3	85240	59813	inactive
CG12496 (GeneID 31226)	1	36760	44210	inactive
Scamp (GeneID 32470)	1	2.60e5	2.21e5	inactive
Pkc53E (GeneID 48311)	1	1.96e5	1.50e5	inactive
Pkc53E (GeneID 48311)	2	55940	59813	inactive
ng4 (GeneID 31301)	1	46190	64830	inactive
tll (GeneID 43656)	1	77190	47850	inactive
sax (GeneID 35731)	1	68470	60953	inactive
CG7465 (GeneID 38553)	1	73040	72070	inactive
Muc12Ea (GeneID 32384)	1	3.52e5	3.41e5	inactive

2 entries from above in another layout:
{"target":"CG32081 (GeneID 326194)","dsRNA no.":1,"raw ATP luminescence, replicate 1":87380,"raw ATP luminescence, replicate 2":78580,"Call":"inactive"}
{"target":"hb (GeneID 41032)","dsRNA no.":1,"raw ATP luminescence, replicate 1":52003,"raw ATP luminescence, replicate 2":28310,"Call":"inactive"}
